Results reported in patent US20130331317A1.
Results are given in words; binding and its absence hold for the method and conditions named. Some binding calls cover weakened binding; strength is not graded here.

Amino acid sequences for entries named in this document (tags omitted). A change or cut given only in a name is not applied to a line headed by its entry. Residues count along the entry.
UniProt P11362, residues 142-365: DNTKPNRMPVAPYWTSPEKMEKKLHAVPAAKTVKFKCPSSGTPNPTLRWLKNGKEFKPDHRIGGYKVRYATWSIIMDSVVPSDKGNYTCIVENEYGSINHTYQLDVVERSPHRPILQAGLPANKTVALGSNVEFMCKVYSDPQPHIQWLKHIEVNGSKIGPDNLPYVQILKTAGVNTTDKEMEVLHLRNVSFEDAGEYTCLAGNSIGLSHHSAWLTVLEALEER
UniProt P09038: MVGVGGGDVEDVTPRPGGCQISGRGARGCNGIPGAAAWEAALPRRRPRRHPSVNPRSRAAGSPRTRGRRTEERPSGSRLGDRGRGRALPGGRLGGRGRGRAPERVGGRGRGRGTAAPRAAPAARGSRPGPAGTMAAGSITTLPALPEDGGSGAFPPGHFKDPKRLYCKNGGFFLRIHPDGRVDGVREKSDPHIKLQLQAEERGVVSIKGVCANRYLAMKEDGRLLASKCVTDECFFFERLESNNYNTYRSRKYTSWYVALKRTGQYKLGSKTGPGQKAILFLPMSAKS

Tests used:
[1] = biological target: ligand-binding domain of human FGFR1c (D142 to R365) (human) (UniProt P11362); test: SPR; FGFR1c ligand-binding domain passed over immobilised FGF2
[2] = biological target: ligand-binding domain of human FGFR1c (D142 to R365) (human) (UniProt P11362); test: SPR; increasing concentrations of FGFR1c ligand-binding domain passed over immobilised FGF2
[3] = biological target: ligand-binding domain of human FGFR1c (D142 to R365) (human) (UniProt P11362); test: SPR; FGFR1c ligand-binding domain passed over immobilised FGF

Measured: binding

human FGF2 (M1 to S155) (from UniProt P09038 134-288) (ligand)
binds: all assays above
